From the supplement of paper PMC10849652
The other results are listed elsewhere or left out.

Sequences of proteins named here, by UniProt entry; tags and fusion partners are left off. A change or cut given only in a name is not applied to a line headed by its entry.
UniProt Q00796: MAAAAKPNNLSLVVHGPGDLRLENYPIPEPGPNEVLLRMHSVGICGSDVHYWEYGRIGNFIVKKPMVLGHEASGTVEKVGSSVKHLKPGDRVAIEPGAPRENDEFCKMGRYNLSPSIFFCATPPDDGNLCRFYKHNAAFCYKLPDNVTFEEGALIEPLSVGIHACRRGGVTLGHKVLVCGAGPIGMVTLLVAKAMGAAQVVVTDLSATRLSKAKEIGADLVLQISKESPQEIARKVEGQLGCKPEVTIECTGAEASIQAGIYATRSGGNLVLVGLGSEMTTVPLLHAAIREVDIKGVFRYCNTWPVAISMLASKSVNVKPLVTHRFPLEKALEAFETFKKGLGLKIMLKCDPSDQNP
UniProt Q7KZF4: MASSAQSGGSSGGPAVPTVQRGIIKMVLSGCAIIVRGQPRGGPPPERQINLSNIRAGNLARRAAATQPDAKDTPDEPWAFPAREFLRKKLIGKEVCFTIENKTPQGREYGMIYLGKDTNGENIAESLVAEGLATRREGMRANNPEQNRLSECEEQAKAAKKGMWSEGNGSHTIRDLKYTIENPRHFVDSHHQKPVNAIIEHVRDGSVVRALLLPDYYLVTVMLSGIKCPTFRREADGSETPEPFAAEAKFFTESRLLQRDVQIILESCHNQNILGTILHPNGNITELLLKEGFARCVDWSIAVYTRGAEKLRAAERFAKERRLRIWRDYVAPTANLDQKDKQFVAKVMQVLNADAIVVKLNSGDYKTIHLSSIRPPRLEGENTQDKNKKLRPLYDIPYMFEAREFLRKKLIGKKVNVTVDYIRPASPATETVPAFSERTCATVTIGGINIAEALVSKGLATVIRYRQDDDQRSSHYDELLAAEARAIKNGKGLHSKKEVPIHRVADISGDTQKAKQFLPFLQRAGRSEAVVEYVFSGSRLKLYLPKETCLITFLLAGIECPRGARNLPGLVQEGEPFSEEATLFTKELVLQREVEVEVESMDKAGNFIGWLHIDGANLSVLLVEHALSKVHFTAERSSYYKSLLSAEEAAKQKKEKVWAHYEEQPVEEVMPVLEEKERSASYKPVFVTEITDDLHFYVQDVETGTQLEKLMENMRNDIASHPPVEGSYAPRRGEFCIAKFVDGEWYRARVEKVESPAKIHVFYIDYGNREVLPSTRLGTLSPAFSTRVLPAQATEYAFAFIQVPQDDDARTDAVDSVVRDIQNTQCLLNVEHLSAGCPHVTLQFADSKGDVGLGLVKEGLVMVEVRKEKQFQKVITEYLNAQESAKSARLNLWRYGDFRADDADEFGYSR
UniProt O60264, whole entry, looked up: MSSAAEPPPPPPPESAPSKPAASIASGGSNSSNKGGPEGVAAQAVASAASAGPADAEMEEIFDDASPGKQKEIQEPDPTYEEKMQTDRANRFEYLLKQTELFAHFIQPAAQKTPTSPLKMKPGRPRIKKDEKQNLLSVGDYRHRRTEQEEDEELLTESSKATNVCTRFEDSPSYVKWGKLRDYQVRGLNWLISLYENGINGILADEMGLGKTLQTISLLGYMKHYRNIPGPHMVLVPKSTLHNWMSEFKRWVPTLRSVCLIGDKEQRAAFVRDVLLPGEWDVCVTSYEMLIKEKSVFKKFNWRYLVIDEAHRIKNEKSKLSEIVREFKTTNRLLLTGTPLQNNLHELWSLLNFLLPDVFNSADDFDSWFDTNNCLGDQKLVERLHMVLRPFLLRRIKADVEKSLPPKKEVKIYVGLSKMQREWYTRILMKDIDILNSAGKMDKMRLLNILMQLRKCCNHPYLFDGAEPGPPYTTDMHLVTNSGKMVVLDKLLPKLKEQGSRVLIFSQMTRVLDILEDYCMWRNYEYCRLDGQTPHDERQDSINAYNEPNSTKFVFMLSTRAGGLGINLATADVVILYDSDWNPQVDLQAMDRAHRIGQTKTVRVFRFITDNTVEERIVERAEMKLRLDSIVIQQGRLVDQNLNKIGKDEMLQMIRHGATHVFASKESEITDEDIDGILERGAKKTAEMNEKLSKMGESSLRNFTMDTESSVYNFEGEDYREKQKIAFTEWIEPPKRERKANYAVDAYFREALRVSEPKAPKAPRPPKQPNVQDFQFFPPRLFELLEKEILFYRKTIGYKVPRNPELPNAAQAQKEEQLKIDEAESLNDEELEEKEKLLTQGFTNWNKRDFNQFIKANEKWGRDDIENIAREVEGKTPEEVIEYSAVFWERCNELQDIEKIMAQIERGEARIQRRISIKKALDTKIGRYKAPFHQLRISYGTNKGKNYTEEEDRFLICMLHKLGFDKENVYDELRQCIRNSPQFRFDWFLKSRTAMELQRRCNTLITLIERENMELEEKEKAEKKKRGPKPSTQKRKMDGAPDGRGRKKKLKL
UniProt Q9NXE4: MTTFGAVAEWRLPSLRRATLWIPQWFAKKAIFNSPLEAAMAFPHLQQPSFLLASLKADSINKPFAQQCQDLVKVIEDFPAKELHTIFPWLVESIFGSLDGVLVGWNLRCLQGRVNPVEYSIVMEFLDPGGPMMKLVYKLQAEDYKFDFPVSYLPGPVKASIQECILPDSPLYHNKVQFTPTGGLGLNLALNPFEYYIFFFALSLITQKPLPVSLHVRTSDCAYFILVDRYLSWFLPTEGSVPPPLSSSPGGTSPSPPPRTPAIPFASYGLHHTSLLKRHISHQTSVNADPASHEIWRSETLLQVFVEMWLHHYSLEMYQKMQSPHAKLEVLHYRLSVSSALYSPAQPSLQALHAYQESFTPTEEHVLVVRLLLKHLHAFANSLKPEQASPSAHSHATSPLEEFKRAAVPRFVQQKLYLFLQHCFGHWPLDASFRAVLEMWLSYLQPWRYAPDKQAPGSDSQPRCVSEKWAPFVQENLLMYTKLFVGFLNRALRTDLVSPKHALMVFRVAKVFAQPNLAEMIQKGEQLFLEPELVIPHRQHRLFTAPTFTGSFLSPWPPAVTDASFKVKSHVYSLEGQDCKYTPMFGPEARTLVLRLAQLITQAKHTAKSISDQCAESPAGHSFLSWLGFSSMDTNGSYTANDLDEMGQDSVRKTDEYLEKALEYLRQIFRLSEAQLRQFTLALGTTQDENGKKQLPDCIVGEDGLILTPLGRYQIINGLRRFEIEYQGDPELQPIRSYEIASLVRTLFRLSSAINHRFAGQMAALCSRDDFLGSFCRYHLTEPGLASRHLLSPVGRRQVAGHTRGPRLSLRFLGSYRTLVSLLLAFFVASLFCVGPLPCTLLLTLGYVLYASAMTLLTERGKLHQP
UniProt Q96DI7: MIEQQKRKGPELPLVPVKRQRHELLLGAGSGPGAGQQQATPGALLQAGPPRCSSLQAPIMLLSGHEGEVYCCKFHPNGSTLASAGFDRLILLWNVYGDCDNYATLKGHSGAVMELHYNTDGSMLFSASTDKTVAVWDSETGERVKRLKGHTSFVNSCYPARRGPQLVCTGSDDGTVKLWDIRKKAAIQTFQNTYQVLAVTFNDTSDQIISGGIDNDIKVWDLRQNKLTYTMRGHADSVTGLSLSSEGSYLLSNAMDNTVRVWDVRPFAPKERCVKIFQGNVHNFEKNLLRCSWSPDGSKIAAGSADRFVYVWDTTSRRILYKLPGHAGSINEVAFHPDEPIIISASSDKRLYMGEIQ
UniProt P23497: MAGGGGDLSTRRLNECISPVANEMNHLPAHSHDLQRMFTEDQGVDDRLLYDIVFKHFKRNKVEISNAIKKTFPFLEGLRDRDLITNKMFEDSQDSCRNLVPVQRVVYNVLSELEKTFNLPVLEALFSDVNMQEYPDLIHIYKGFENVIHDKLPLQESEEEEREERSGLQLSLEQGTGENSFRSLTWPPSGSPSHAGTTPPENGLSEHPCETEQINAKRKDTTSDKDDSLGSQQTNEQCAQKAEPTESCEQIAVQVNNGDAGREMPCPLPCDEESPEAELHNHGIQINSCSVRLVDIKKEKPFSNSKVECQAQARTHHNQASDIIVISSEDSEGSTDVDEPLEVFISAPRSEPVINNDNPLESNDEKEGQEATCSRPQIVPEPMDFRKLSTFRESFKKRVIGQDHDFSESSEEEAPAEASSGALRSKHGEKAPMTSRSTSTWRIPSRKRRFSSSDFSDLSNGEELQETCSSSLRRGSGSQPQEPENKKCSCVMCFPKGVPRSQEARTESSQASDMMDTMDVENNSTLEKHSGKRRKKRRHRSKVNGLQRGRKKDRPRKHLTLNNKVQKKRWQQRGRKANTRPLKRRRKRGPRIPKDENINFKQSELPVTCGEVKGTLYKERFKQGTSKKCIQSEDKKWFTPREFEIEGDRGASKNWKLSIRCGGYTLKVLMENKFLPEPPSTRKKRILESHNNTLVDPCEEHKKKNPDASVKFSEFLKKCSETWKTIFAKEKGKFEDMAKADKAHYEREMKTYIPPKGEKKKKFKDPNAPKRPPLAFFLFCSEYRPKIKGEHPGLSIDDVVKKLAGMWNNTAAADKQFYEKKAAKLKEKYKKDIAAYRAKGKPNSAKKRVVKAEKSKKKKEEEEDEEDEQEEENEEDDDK
UniProt A6NHR9: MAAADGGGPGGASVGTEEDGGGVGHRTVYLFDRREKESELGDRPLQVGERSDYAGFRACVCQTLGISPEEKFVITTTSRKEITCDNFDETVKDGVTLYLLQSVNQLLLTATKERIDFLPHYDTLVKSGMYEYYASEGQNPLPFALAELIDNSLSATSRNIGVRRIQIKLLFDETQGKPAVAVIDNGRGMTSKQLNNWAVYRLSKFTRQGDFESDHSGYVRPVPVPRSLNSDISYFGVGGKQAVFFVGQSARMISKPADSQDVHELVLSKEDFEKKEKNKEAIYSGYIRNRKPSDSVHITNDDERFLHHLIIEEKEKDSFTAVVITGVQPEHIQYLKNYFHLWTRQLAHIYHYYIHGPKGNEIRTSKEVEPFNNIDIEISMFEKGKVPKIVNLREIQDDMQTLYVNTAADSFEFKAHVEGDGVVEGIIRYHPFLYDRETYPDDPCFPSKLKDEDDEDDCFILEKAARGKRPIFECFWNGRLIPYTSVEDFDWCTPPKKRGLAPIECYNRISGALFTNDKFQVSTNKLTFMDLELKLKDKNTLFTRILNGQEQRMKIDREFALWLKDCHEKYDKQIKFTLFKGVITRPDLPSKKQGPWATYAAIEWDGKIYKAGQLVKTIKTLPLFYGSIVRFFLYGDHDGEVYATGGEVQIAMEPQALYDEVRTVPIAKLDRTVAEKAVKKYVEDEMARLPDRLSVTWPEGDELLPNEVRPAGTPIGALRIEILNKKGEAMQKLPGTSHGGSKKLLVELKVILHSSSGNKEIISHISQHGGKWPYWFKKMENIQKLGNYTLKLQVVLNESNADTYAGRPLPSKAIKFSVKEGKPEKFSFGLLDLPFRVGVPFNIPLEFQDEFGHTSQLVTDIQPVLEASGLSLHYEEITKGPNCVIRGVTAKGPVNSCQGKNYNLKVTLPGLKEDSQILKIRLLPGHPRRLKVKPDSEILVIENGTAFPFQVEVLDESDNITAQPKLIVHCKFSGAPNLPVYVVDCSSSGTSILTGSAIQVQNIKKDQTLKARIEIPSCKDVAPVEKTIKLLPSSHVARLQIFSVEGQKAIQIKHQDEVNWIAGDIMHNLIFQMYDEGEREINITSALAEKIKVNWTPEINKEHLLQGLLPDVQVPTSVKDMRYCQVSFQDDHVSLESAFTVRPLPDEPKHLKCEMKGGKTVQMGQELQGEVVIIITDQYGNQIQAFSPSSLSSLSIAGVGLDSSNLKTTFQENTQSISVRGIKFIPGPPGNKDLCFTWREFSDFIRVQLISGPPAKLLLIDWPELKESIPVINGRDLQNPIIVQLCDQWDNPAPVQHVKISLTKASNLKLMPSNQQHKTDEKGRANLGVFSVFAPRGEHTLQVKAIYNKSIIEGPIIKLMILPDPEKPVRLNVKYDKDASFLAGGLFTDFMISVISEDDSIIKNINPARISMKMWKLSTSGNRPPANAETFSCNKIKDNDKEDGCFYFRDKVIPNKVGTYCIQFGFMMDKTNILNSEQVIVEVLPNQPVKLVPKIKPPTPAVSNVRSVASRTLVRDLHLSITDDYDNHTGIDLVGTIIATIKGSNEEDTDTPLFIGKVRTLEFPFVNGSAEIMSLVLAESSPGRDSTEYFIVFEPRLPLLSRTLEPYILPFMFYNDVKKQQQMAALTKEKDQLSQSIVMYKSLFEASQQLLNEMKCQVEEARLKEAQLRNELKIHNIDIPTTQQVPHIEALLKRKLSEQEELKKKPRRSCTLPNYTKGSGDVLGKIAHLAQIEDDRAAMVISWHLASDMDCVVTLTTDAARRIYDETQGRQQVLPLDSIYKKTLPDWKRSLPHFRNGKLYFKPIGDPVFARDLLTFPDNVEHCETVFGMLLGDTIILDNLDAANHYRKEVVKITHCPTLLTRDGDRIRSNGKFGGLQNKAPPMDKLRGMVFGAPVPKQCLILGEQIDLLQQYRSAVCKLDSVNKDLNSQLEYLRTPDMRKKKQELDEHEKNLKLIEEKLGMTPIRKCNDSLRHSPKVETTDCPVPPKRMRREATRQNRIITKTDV
UniProt P62314, whole entry, looked up: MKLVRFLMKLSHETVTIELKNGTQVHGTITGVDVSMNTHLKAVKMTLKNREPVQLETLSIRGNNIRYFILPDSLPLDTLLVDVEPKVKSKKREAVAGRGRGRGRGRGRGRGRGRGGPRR

Experiments:
Assay in all cases: log2 fold change, soluble protein after heating vs DMSO (PISA); higher = thermal stabilisation; K562 cells, 10 uM, 30 min; active = over 0.2 and 3.5 SD of the protein, either way, in both replicates (recomputed)
bafetinib = compound: Cc1ccc(NC(=O)c2ccc(CN3CC[C@H](N(C)C)C3)c(C(F)(F)F)c2)cc1Nc1nccc(-c2cncnc2)n1 [bafetinib]
Procedure, shortened: (§1)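 Aliquots of K562 cells (2×10^6 cells/mL) treated with 10 μM compound for 30 min were heated for 3 min over 48°C-58°C. After pooling and extraction in PBS with 0.5% NP-40 at 4°C, soluble protein from a 21,000xg, 90 min spin was quantified by TMTpro 16plex LC-MS/MS with channel sums equalised. Thermal stability is expressed against control samples, from duplicates, as a log2 fold change.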

[1] = compound: Cc1cccc(CC(=O)N2CCc3c2ccc(-c2cn(C)c4ncnc(N)c24)c3F)n1
Procedure, shortened: as §1

nilotinib = compound: Cc1cn(-c2cc(NC(=O)c3ccc(C)c(Nc4nccc(-c5cccnc5)n4)c3)cc(C(F)(F)F)c2)cn1 [nilotinib]
Procedure, shortened: as §1

[2] = compound: Cc1nc(Nc2n[nH]c3c2CN(C(=O)N[C@H](CN(C)C)c2ccccc2)C3(C)C)c2sccc2n1
Procedure, shortened: as §1

dasatinib = compound: Cc1nc(Nc2ncc(C(=O)Nc3c(C)cccc3Cl)s2)cc(N2CCN(CCO)CC2)n1 [dasatinib]
Procedure, shortened: as §1

[3] = compound: Cc1ncc(-c2ccnc(Nc3ccc(S(C)(=O)=O)cc3)n2)n1C(C)C
Procedure, shortened: as §1

[4] = compound: Cn1cc(-c2ccc3c(c2)CCN3C(=O)Cc2cccc(C(F)(F)F)c2)c2c(N)ncnc21
Procedure, shortened: as §1

[5] = compound: Cn1cc(-c2ccc3nnc(C(F)(F)c4ccc5ncccc5c4)n3n2)cn1
Procedure, shortened: as §1

tipifarnib = compound: Cn1cncc1[C@@](N)(c1ccc(Cl)cc1)c1ccc2c(c1)c(-c1cccc(Cl)c1)cc(=O)n2C [tipifarnib]
Procedure, shortened: as §1

mubritinib = compound: FC(F)(F)c1ccc(/C=C/c2nc(COc3ccc(CCCCn4ccnn4)cc3)co2)cc1 [mubritinib]
Procedure, shortened: as §1

[6] = compound: NC(=O)Nc1cc(-c2cccc(F)c2)sc1C(=O)N[C@H]1CCCNC1
Procedure, shortened: as §1

[7] = compound: NC(=O)c1cnc(N[C@@H]2CCCC[C@@H]2N)nc1Nc1cccc(-n2nccn2)c1
Procedure, shortened: as §1

[8] = compound: NC1(c2ccc(-c3nc4ccn5c(=O)[nH]nc5c4cc3-c3ccccc3)cc2)CCC1
Procedure, shortened: as §1

[9] = compound: NCC(=O)Nc1ccc(-n2nc(C(F)(F)F)cc2-c2ccc3c(ccc4ccccc43)c2)cc1
Procedure, shortened: as §1

entinostat = compound: Nc1ccccc1NC(=O)c1ccc(CNC(=O)OCc2cccnc2)cc1 [entinostat]
Procedure, shortened: as §1

vorinostat = compound: O=C(CCCCCCC(=O)Nc1ccccc1)NO [vorinostat]
Procedure, shortened: as §1

citarinostat = compound: O=C(CCCCCCNC(=O)c1cnc(N(c2ccccc2)c2ccccc2Cl)nc1)NO [citarinostat]
Procedure, shortened: as §1

silmitasertib = compound: O=C(O)c1ccc2c(c1)nc(Nc1cccc(Cl)c1)c1ccncc12 [silmitasertib]
Procedure, shortened: as §1

[10] = compound: O=C1NC(=O)C(c2cnc3ccccn23)=C1c1cn2c3c(cc(F)cc13)CN(C(=O)N1CCCCC1)CC2
Procedure, shortened: as §1

[11] = compound: c1cc(OCCN2CCCCC2)cc(-c2n[nH]c3ccc(-c4nnc[nH]4)cc23)c1
Procedure, shortened: as §1

Measured: log2 fold change

SMIM26, A0A096LP01
inactive: bafetinib -0.045 | [1] 0.107 | nilotinib 0.036 | [2] 0.022 | dasatinib 0.017 | [3] -0.015 | [4] 0.015 | [5] 0.022 | tipifarnib -0.074 | mubritinib 0.008 | [6] -0.003 | [7] -0.043 | [8] -0.137 | [9] -0.028 | entinostat 0.068 | vorinostat 0.162 | citarinostat 0.126 | silmitasertib 0.032 | [10] 0.017 | [11] -0.001

SMG1 (UniProt Q96Q15)
inactive: bafetinib 0.059 | [1] -0.012 | nilotinib 0.03 | [2] -0.061 | dasatinib -0.266 | [3] -0.015 | [4] -0.035 | [5] 0.023 | tipifarnib -0.098 | mubritinib 0.064 | [6] -0.073 | [7] -0.111 | [8] -0.101 | [9] -0.073 | entinostat -0.097 | vorinostat -0.012 | citarinostat 0.024 | silmitasertib 0.142 | [10] 0.013 | [11] -0.187

SORD (UniProt Q00796)
inactive: bafetinib -0.029 | [1] -0.029 | nilotinib 0.014 | [2] 0 | dasatinib 0.016 | [3] 0.003 | [4] 0.06 | [5] 0.018 | tipifarnib 0 | mubritinib 0.032 | [6] -0.006 | [7] -0.003 | [8] 0.014 | [9] 0.004 | entinostat -0.01 | vorinostat -0.017 | citarinostat 0.025 | silmitasertib -0.013 | [10] -0.024 | [11] 0.006

SND1 (UniProt Q7KZF4)
inactive: bafetinib 0.224 | [1] 0 | nilotinib -0.04 | [2] -0.096 | dasatinib 0.083 | [3] 0.047 | [4] -0.334 | [5] -0.355 | tipifarnib 0.088 | mubritinib -0.237 | [6] 0.181 | [7] 0.112 | [8] 0.423 | [9] 0.135 | entinostat 0.103 | vorinostat -0.039 | citarinostat -0.08 | silmitasertib 0.27 | [10] 0.456 | [11] -0.203

SMARCA5 (UniProt O60264)
inactive: bafetinib -0.052 | [1] 0.001 | nilotinib -0.019 | [2] -0.152 | dasatinib -0.052 | [3] 0.002 | [4] -0.088 | [5] -0.112 | tipifarnib -0.022 | mubritinib 0.184 | [6] -0.084 | [7] -0.121 | [8] -0.095 | [9] -0.01 | entinostat 0.097 | vorinostat 0.204 | citarinostat -0.094 | silmitasertib 0.028 | [10] -0.034 | [11] 0.03

SMPD4 isoform 4 (UniProt Q9NXE4)
inactive: bafetinib -0.031 | [1] 0.122 | nilotinib -0.1 | [2] -0.076 | dasatinib -0.037 | [3] 0.025 | [4] 0.098 | [5] 0.04 | tipifarnib -0.016 | mubritinib 0.148 | [6] -0.008 | [7] -0.075 | [8] -0.141 | [9] -0.059 | entinostat 0.033 | vorinostat 0.084 | citarinostat -0.039 | silmitasertib 0.085 | [10] 0.012 | [11] 0.268

SOAT1 (UniProt P35610)
inactive: bafetinib 0.085 | [1] 0.011 | [2] -0.001 | dasatinib 0.257 | [3] -0.021 | [4] 0.031 | [5] -0.058 | tipifarnib 0.039 | mubritinib 0.096 | [6] -0.073 | [7] -0.049 | [8] -0.171 | [9] -0.045 | entinostat 0.029 | vorinostat -0.063 | citarinostat 0.112 | silmitasertib 0.084 | [10] -0.098 | [11] -0.185
active: nilotinib 0.566

SOCS2 (UniProt O14508)
inactive: bafetinib -0.098 | [1] -0.072 | nilotinib 0.016 | [2] 0.031 | dasatinib -0.004 | [3] 0.013 | [4] 0.047 | [5] 0.043 | tipifarnib -0.012 | mubritinib 0.106 | [6] -0.068 | [7] 0.002 | [8] -0.014 | [9] -0.097 | entinostat -0.009 | vorinostat -0.023 | citarinostat 0.017 | silmitasertib 0.035 | [10] -0.055 | [11] -0.053

SNRNP40 (UniProt Q96DI7)
inactive: bafetinib 0.018 | [1] -0.023 | nilotinib 0.054 | [2] 0.166 | dasatinib 0.1 | [3] 0.119 | [4] -0.051 | [5] -0.021 | tipifarnib 0.038 | mubritinib 0.006 | [6] 0.017 | [7] -0.017 | [8] 0.065 | [9] -0.011 | entinostat -0.067 | vorinostat -0.018 | citarinostat -0.008 | silmitasertib 0.058 | [10] 0.04 | [11] -0.121

SNX9 (UniProt Q9Y5X1)
inactive: bafetinib -0.015 | [1] 0.03 | nilotinib -0.06 | [2] -0.064 | dasatinib -0.131 | [3] 0.006 | [4] -0.023 | [5] -0.008 | tipifarnib -0.013 | mubritinib 0.009 | [6] -0.013 | [7] -0.022 | [8] -0.102 | [9] -0.055 | entinostat 0.037 | vorinostat 0.058 | citarinostat 0.024 | silmitasertib 0.033 | [10] -0.065 | [11] -0.067

SP100 isoform 4 (UniProt P23497)
inactive: bafetinib -0.047 | [1] -0.056 | nilotinib -0.02 | [2] -0.061 | dasatinib -0.054 | [3] -0.057 | [4] 0.02 | [5] 0.026 | tipifarnib -0.087 | mubritinib 0.043 | [6] 0.03 | [7] -0.007 | [8] -0.025 | [9] -0.039 | entinostat 0.007 | vorinostat -0.046 | citarinostat -0.011 | silmitasertib 0.059 | [10] -0.051 | [11] 0.02

SNRPC (UniProt P09234)
inactive: bafetinib -0.002 | [1] 0.044 | nilotinib 0.061 | [2] 0.016 | dasatinib 0.184 | [3] 0.029 | [4] -0.085 | [5] 0.029 | tipifarnib 0.061 | mubritinib -0.009 | [6] -0.004 | [7] 0.1 | [8] 0.136 | [9] 0.068 | entinostat 0.026 | vorinostat -0.112 | citarinostat 0.021 | silmitasertib 0.041 | [10] 0.014 | [11] -0.044

SLC9A3R2 (UniProt Q15599)
inactive: bafetinib -0.031 | [1] -0.009 | nilotinib 0.014 | [2] -0.057 | dasatinib -0.02 | [3] 0.009 | [4] 0.002 | [5] 0.012 | tipifarnib 0.006 | mubritinib 0.024 | [6] -0.009 | [7] 0.02 | [8] 0.019 | [9] -0.03 | entinostat -0.057 | vorinostat 0.007 | citarinostat -0.069 | silmitasertib -0.085 | [10] 0.035 | [11] -0.111

SMCHD1 (UniProt A6NHR9)
inactive: bafetinib 0.306 | [1] 0 | nilotinib 0.037 | [2] -0.011 | dasatinib -0.319 | [3] -0.044 | [4] -0.061 | [5] -0.084 | tipifarnib -0.003 | mubritinib -0.136 | [6] -0.085 | [7] -0.352 | [8] 0.159 | [9] -0.423 | entinostat 0.08 | vorinostat 0.19 | citarinostat 0.085 | silmitasertib 0.095 | [10] 0.206 | [11] -0.176

SNRPD1 (UniProt P62314)
inactive: bafetinib 0.058 | [1] -0.176 | nilotinib 0.017 | [2] 0.068 | dasatinib 0.114 | [3] 0.068 | [4] -0.05 | [5] -0.019 | tipifarnib 0.068 | mubritinib -0.003 | [6] -0.041 | [7] -0.036 | [8] 0.078 | [9] -0.018 | entinostat -0.058 | vorinostat -0.089 | citarinostat -0.007 | silmitasertib 0.074 | [10] -0.022 | [11] -0.035

SMAD9 (UniProt O15198)
inactive: bafetinib -0.102 | [1] -0.226 | nilotinib -0.113 | [2] 0.004 | dasatinib -0.077 | [3] -0.114 | [4] 0.058 | [5] 0.015 | tipifarnib -0.069 | mubritinib -0.067 | [6] -0.114 | [7] 0.001 | [8] -0.069 | [9] 0.05 | entinostat -0.076 | vorinostat 0.006 | citarinostat -0.017 | silmitasertib -0.055 | [10] -0.111 | [11] -0.029
